Experimental data from publication PMC10883971.

Experiments:
[1] = tested on: TEAD (TEAD1-4, paralog not resolved) + YAP; assay: EMSA supershift; settings: siYAP reduces band, anti-YAP supershift; 10 mM HEPES pH 8, 50 mM NaCl, 0.1 mM EDTA, 5 mM MgCl2, 2 mM DTT, 5% glycerol, 2 ug poly dG:dC, 4 ug BSA, 5 ug nuclear extract in 20 ul, room temperature; 4.8% gel in TBE; protein in an extract; label: 32P (gamma-32P-ATP)
[2] = tested on: TEAD (TEAD1-4, paralog not resolved) + YAP + beta-catenin; assay: EMSA supershift; settings: anti-beta-catenin reduces band, anti-YAP plus anti-beta-catenin displaces band, no ternary binding after siTEAD; 10 mM HEPES pH 8, 50 mM NaCl, 0.1 mM EDTA, 5 mM MgCl2, 2 mM DTT, 5% glycerol, 2 ug poly dG:dC, 4 ug BSA, 5 ug nuclear extract in 20 ul, room temperature; 4.8% gel in TBE; protein in an extract; label: 32P (gamma-32P-ATP)

TTCGATACACTTGTGGAATGTGTTTGATTTGTTAGCCCCG (double strand) [hMCAT 1xGT (TEAD consensus)]
binding result [1]: binds
binding result [2]: binds

Construct, isoform or probe ends are uncertain for at least one entry. At least one result comes from cells or an extract, where the contact may be indirect.
